# Laboratory results taken from PubChem BioAssay AID445 (National Center for Advancing Translational Sciences (NCATS), 2006).
# This is one part of the list. These are further read-outs of the screen, such as a control signal, another cell line or another target. No call is given for them. The list favours compounds with an active or inconclusive main result. Words in brackets tell the shape of the fitted curve; partial curves, single points and poor fits give uncertain potencies.
# Assay: IkB Signaling
# Settings: ABC-DLBCL IkBa-CBG/CBR dual luciferase ratio (green luciferase fused to IkBa over red control in OCI-Ly3 lymphoma cells), 4 h; measured here: control luc red channel unless noted
# In short: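 Luminescence ratio of IκBα-fused green versus native red beetle luciferase in OCI-Ly3 cells, 4 h post-doxycycline with compound; red signal alone, scaled from basal (0%) to zero light (-100%), flagged nonspecific or cytotoxic effects.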
row,SMILES,AC50
1,Cc1cccn2c(=O)c3cc(C#N)c(=O)n(-c4nnc(SCc5ccc(Cl)cc5)s4)c3nc12,"2.51 µM [falling, full curve, poor fit]"
2,Cc1ccc(C)c(Cn2c(=O)c3c(nc4n3CCN4c3ccccc3)n(C)c2=O)c1,"15.8 µM [falling, partial curve]"
3,CC(=O)N1CCc2c(sc3c2c(=O)n(CCc2ccccc2)c(=O)n3Cc2ccccc2C)C1,"39.8 µM [falling, single point]"
4,COc1ccc(NC(=O)CSc2nc(-c3cccc(C)c3)[nH]c2-c2ccccc2)cc1OC,"10 µM [falling, partial curve]"
5,COc1ccc(N2C(=O)CSC23C(=O)N(CC(=O)NCCc2ccccc2)c2ccccc23)cc1 (stereo not given),"39.8 µM [falling, single point]"
6,O=C(CSc1nc(=O)[nH]c2c1CCCC2)NCc1ccccc1,"5.01 µM [rising, partial curve]"
7,COc1cc(N=c2ssnc2Cl)cc(OC)c1OC,"31.6 µM [falling, partial curve]"
8,Cc1ccc(S(=O)(=O)c2c(O)cc(C)c(NS(=O)(=O)c3ccc(Cl)cc3)c2C)cc1,"12.6 µM [falling, partial curve]"
9,Cc1cc(C)c2sc(N3CCN(C(=O)c4ccc(N(C)C)cc4)CC3)nc2c1,"15.8 µM [falling, partial curve]"
10,CC(C)Cn1c(N)c(C(=O)NCc2cccs2)c2nc3ccccc3nc21,"7.94 µM [falling, partial curve]"
11,COc1ccc(-c2cn3c(C)c(C(=O)Nc4cccc(NC(C)=O)c4)sc3n2)cc1,"5.01 µM [falling, partial curve]"
12,COc1cc(C)nc(NCc2ccccc2)n1,"12.6 µM [rising, partial curve]"
13,COc1cccc(Cc2nc3ccccc3nc2SCC(=O)Nc2cc(OC)ccc2OC)c1,"3.16 µM [falling, full curve]"
14,COc1ccc(-c2noc(-c3ccccc3F)n2)cc1,"12.6 µM [falling, partial curve]"
15,CCOCCn1ccc2c(OCC(=O)Nc3cccc(F)c3)cccc2c1=O,"20 µM [falling, single point]"
16,CCOc1cc(-c2ccc(OC(=O)c3ccccc3)c(OC)c2)cc(=O)c2c(C)oc(C)c12,"20 µM [falling, single point]"
17,Cc1ccc(C2c3c(oc4ccccc4c3=O)C(=O)N2c2nnc(C)s2)cc1 (stereo not given),"39.8 µM [falling, partial curve, poor fit]"
18,COc1ccc(C)cc1Nc1ncnc2c1c(-c1ccccc1)cn2-c1ccc(C)cc1,"12.6 µM [falling, partial curve]"
19,O=c1c2sc3ccccc3c2n(Cc2ccccc2)c(=O)n1CCc1ccccc1,"12.6 µM [falling, partial curve]"
20,COc1ccc(S(=O)(=O)N2CCC(C(=O)Nc3cc(C(F)(F)F)ccc3Cl)CC2)cc1,"7.94 µM [falling, full curve, poor fit]"

row,SMILES,AC50
1,Cc1cc(C(=O)CSc2nnnn2-c2ccc(O)cc2)c(C)n1Cc1ccc2c(c1)OCO2,"3.16 µM [falling, full curve]"
2,CCc1nc2scc(-c3ccccc3)c2c(=O)n1N,"0.794 µM [rising, full curve, poor fit]"
3,COc1ccc(OC)c2sc(N3CCN(C(=O)C4COc5ccccc5O4)CC3)nc12 (stereo not given),"39.8 µM [falling, single point]"
4,CC(C)c1ccc(NC(=O)CCS(=O)(=O)c2ccc3c(c2)CC(=O)N3C)cc1,"15.8 µM [falling, partial curve]"
5,CCCCCn1cc2c(c1-c1ccccc1Br)c(=O)n(C)c(=O)n2C,"15.8 µM [falling, partial curve]"
6,COc1ccc(C(c2nnnn2CC2CCCO2)N2CCN(c3cccc(C)c3C)CC2)cc1 (stereo not given),"12.6 µM [falling, partial curve]"
7,Cc1ccc2occ(CC(=O)Nc3ccc(S(=O)(=O)N4CCC(C)CC4)cc3)c2c1,"12.6 µM [falling, partial curve]"
8,CCOc1ccc2ncc3c(-c4cccc(OC)c4)nn(-c4ccccc4)c3c2c1,"7.94 µM [falling, full curve]"
9,COc1ccccc1CNC(=O)CSc1nnc(C)c2c(C)n(-c3ccccc3)nc12,"10 µM [falling, partial curve]"
10,Cc1ccccc1OCCCCn1nnc2sc3c(c2c1=O)CCC(C)C3 (stereo not given),"0.398 µM [falling, partial curve]"
11,Cc1nc2sccn2c(=O)c1S(=O)(=O)Nc1cc(C(F)(F)F)ccc1Cl,"25.1 µM [falling, single point]"
12,COc1ccccc1NC=C1C(=O)OC(C)(C)OC1=O,"31.6 µM [rising, partial curve]"
13,CN1C(=O)C2(SCC(=O)N2c2ccc(Cl)cc2)c2ccccc21 (stereo not given),"0.0316 µM [falling, full curve]"
14,CC(=O)N1CCCc2cc(S(=O)(=O)N3CCCC(C(=O)NCc4ccc(C)cc4)C3)ccc21 (stereo not given),"15.8 µM [falling, partial curve]"
15,CCCOc1ccc(-c2cc(C(F)(F)F)c(C#N)c(SCCC(=O)O)n2)cc1,"15.8 µM [falling, partial curve]"
16,CCCN(CCC)C(=O)Cn1c(=O)n(CCCCCC(=O)NCc2ccccc2Cl)c(=O)c2sccc21,"0.0316 µM [falling, full curve, poor fit]"
17,COc1ccc(C2CC3(CC(C)(C)NC(=O)N3)Oc3cc(O)ccc32)cc1 (stereo not given),"15.8 µM [falling, partial curve]"
18,CS(=O)(=O)N1CCc2cc(C(=O)Nc3ccc(C(F)(F)F)cc3)ccc21,"20 µM [falling, partial curve]"
19,CC(=O)c1ccc(NC(=O)N2CCN(c3cccc(Cl)c3)CC2)cc1,"12.6 µM [falling, partial curve]"
20,CN(C)c1ccc(CNC(=O)C2CCN(Cc3cc4ccccc4n3Cc3ccccc3)CC2)cc1,"1.26 µM [rising, single point]"

# Three entries picked at random from the list so far:
row,SMILES,AC50
14,CC(=O)N1CCCc2cc(S(=O)(=O)N3CCCC(C(=O)NCc4ccc(C)cc4)C3)ccc21 (stereo not given),"15.8 µM [falling, partial curve]"
5,CCCCCn1cc2c(c1-c1ccccc1Br)c(=O)n(C)c(=O)n2C,"15.8 µM [falling, partial curve]"
19,CC(=O)c1ccc(NC(=O)N2CCN(c3cccc(Cl)c3)CC2)cc1,"12.6 µM [falling, partial curve]"
